Experimental data from PubChem BioAssay AID1487 (National Center for Advancing Translational Sciences (NCATS), 2009).
Several values for one entry are separate records, joined by “and”; a condition that tells them apart may be missing. Equal entries are not always repeated. The list shows a part of the results. These are further read-outs of the screen, such as a control signal, another cell line or another target. No call is given for them. Most of these compounds were active or inconclusive in the main read-out, so they are no random draw. Potencies come from curve fits of mixed quality, noted in brackets.

Experiment: qHTS Assay for Modulators of Lamin A Splicing
Details: HeLa LMNA splicing GFP/RFP minigene ratio, 48 h
How it was run: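 S3 HeLa stable clones carrying a lamin A-EGFP splicing minigene plus DsRed2 were seeded at 600 cells/well in Opti-MEM with 2% FBS, pin-dosed and incubated 48 h at 37°C. Acumen cytometry (488 nm) gave the GFP/RFP total-intensity ratio.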

[1] = measured here: GFP splicing reporter channel
[2] = measured here: RFP viability control channel

Cc1ccccc1OCc1nnc(SCc2cc(=O)c3cccc(F)c3[nH]2)n1C
AC50 [1]: 3.98 µM [falling, full curve, poor fit]
AC50 [2]: 1.78 µM [falling, full curve]

O=c1c2ccccc2nc(COc2ccccc2)n1/N=C/c1cn[nH]c1-c1ccccc1
AC50 [2]: 22.4 µM [rising, single point]

Cc1ccnc(N2CCN(C(=O)CSc3nc4ccccc4nc3N3CCCCC3)CC2)c1
AC50 [1]: 11.2 µM [rising, partial curve]
AC50 [2]: 35.5 µM [rising, single point]

O=C(c1ccc(CSc2nc3ccncc3[nH]2)cc1)N1CCCCC1
AC50 [1]: 11.2 µM [rising, single point]
AC50 [2]: 20 µM [rising, single point]

COc1ccc(-n2c(C)cc(C(=O)CSc3nnc(-c4ccoc4C)n3C)c2C)cc1
AC50 [2]: 31.6 µM [rising, single point]

COc1ccc2oc3cc(C)[n+]([O-])c(-c4ccc(Br)cc4)c3c2c1
AC50 [2]: 14.1 µM [rising, partial curve]

CN(C)CCCN1c2ccccc2CCc2ccc(Cl)cc21
AC50 [1]: 631 nM [falling, partial curve, poor fit] and 20 µM [falling, single point] and 8.91 µM [rising, partial curve]
AC50 [2]: 35.5 µM [rising, single point] and 12.6 µM [rising, partial curve]

CCCCOc1ccc(C(=O)NCC2(c3ccc(OC)cc3)CCOCC2)cc1
AC50 [2]: 17.8 µM [rising, single point]

O=C(Nc1ncc2c(n1)-c1ccccc1OC2)c1ccc(F)cc1
AC50 [1]: 0.355 µM [rising, full curve]

CCOc1cc(CNC(=O)NC2COc3ccc(OC)cc3C2)cc(OCC)c1OCC (stereo unspecified)
AC50 [1]: 0.0251 µM [rising, full curve, poor fit]

CCCCCCSc1nsc(NC(=O)CC(C)C)n1
AC50 [1]: 15.8 µM [rising, partial curve]
AC50 [2]: 22.4 µM [rising, single point]

CC(=O)C1=C(c2ccc(C)c(C)c2)N(C(C)=O)n2c(nnc2-c2ccc(Cl)cc2)S1
AC50 [1]: 11.2 µM [falling, partial curve]
AC50 [2]: 22.4 µM [falling, single point]

Cc1cccc(OCC(=O)Nc2ccc3c(c2)OCO3)c1C
AC50 [1]: 35.5 µM [rising, single point]
AC50 [2]: 31.6 µM [rising, single point]

Cc1cccc(CNC(=O)CCCn2c(=O)c3cccn3c3ccc(F)cc32)c1
AC50 [1]: 0.1 µM [rising, full curve, poor fit]
AC50 [2]: 14.1 µM [rising, partial curve, poor fit]

Cc1nn(CC(=O)NCc2cccc3ccccc23)c(=O)c2ccccc12
AC50 [1]: 35.5 µM [falling, single point]
AC50 [2]: 35.5 µM [falling, single point]

N#Cc1cccc(NC(=O)C2CCN(S(=O)(=O)c3ccc4[nH]c(=O)ccc4c3)CC2)c1
AC50 [1]: 0.224 µM [falling, full curve, poor fit]
AC50 [2]: 0.316 µM [falling, full curve]

CCC(C)(C)n1nnnc1C(c1ccc(C)cc1)N(Cc1ccco1)Cc1cccs1 (stereo unspecified)
AC50 [2]: 35.5 µM [rising, single point]

CCCOC(=O)CSC1=C(C#N)C(c2ccccc2OCC)C(C#N)C(=O)N1 (stereo unspecified)
AC50 [2]: 3.16 µM [rising, full curve, poor fit]

Cc1ccc(SCc2c(-c3ccccc3)nn(C)c2Cl)cc1
AC50 [2]: 20 µM [rising, single point]

C/C(=N\NC(=S)Nc1c(C)cccc1C)c1cc2ccccc2o1
AC50 [1]: 0.282 µM [rising, full curve, poor fit]
AC50 [2]: 5.01 µM [rising, full curve]

CCc1ccc(NCc2nc(-c3ccccc3)no2)cc1
AC50 [1]: 12.6 µM [rising, single point]

CCC(=O)N1CCc2cc(S(=O)(=O)CCC(=O)Nc3nc(C)cs3)ccc21
AC50 [2]: 15.8 µM [rising, single point]

CN(C)S(=O)(=O)c1ccc(C(=O)OCC(=O)NCc2ccccc2)cc1
AC50 [1]: 0.126 µM [rising, full curve]

COc1ccc2nc(C)cc(Nc3ccccc3O)c2c1
AC50 [1]: 0.0562 µM [falling, full curve, poor fit]

Cc1ccc(N(CC(O)CON=C2c3ccccc3-c3ccccc32)S(C)(=O)=O)cc1 (stereo unspecified)
AC50 [1]: 12.6 µM [rising, partial curve]
AC50 [2]: 31.6 µM [rising, single point]

CCC(=O)C1=C(c2cccc(OC)c2)N(C(=O)CC)n2c(nnc2C2CCCCC2)S1
AC50 [1]: 6.31 µM [falling, single point]
AC50 [2]: 5.62 µM [falling, single point]

CC(=O)N[C@@H](CC(=O)O)C(=O)N[C@@H](CCC(=O)O)C(=O)O
AC50 [1]: 0.447 µM [falling, full curve]
AC50 [2]: 0.501 µM [falling, full curve]

Cc1cc(C(C)(C)CC(C)(C)C)ccc1OCCOCC[N+](C)(C)Cc1ccccc1
AC50 [1]: 14.1 µM [falling, partial curve, poor fit]
AC50 [2]: 14.1 µM [falling, partial curve, poor fit]

O=C1NC2(CCCc3ccccc32)C(=O)N1CCOc1ccc(Br)cc1 (stereo unspecified)
AC50 [1]: 17.8 µM [rising, partial curve]
AC50 [2]: 14.1 µM [rising, single point]

O=C(Nc1nnc(-c2ccco2)o1)c1cccc(N2C(=O)CCC2=O)c1
AC50 [1]: 0.00891 µM [rising, full curve, poor fit]

CCOC(=O)c1cc(-c2ccccc2)n(CC(=O)Nc2ccc(OC)c(OC)c2)c1C
AC50 [2]: 0.891 µM [rising, partial curve, poor fit]

Cc1ccc(C)c2nc(N3CCCC3)c(C#N)cc12
AC50 [1]: 10 µM [rising, single point]

CC(=O)c1ccc(NC(=O)CSc2nc(-c3cccc(F)c3)nc3c2c(=O)n(C)c(=O)n3C)cc1
AC50 [1]: 20 µM [falling, single point]
AC50 [2]: 35.5 µM [falling, single point]

Cc1cc(C)c(NC(=S)NC(=O)c2ccc(-c3ccccc3)cc2)c(C)c1
AC50 [2]: 14.1 µM [rising, partial curve]

Cc1ccc2nc(N(Cc3cccnc3)C(=O)CCS(=O)(=O)c3ccccc3)sc2c1
AC50 [2]: 35.5 µM [falling, single point]

CCc1ccc2oc(C(=O)NCc3ccc(S(N)(=O)=O)cc3)c(C)c2c1
AC50 [1]: 0.891 µM [rising, single point]
AC50 [2]: 0.891 µM [rising, full curve]

CCOc1ccc(CCNC(=O)CN2N=C(c3ccccc3)CCC2=O)cc1OCC
AC50 [1]: 0.0316 µM [falling, full curve, poor fit]

CCOC(=O)c1cccc(NC(=O)CSc2nnc(COc3ccccc3C)o2)c1
AC50 [1]: 1.58 µM [falling, partial curve, poor fit]

COC(=O)c1c(C)oc2ccc(NS(=O)(=O)c3cc(OC)ccc3OC)cc12
AC50 [1]: 10 µM [rising, partial curve, poor fit]
AC50 [2]: 11.2 µM [rising, partial curve]

COC(=O)c1cc(Cl)c(NC(=O)c2ccco2)cc1OC
AC50 [2]: 2.82 µM [falling, partial curve]

CC(C)Cc1nc(Nc2ccc(S(=O)(=O)N3CCCC3)cc2)c2nnn(Cc3ccccc3)c2n1
AC50 [2]: 31.6 µM [rising, single point]

COc1ccc(CNC(=O)c2ccc3c(c2)nc2n3CCOC2)c(OC)c1
AC50 [1]: 0.562 µM [rising, single point]

Cc1cc(NC(=O)C2=C(O)c3ccccc3S(=O)(=O)N2C)no1
AC50 [2]: 0.891 µM [rising, partial curve]

COc1ccc(NC2=NCC(Cc3ccc(Br)cc3)S2)cc1 (stereo unspecified)
AC50 [1]: 35.5 µM [falling, partial curve, poor fit]
AC50 [2]: 12.6 µM [falling, partial curve, poor fit]

CN1CCCN=C1/C=C\c1cccs1
AC50 [1]: 0.251 µM [falling, partial curve, poor fit]
AC50 [2]: 0.501 µM [falling, single point]

CC1=CC2=NC(=O)/C(=C\c3cn(C)c4ccccc34)C(=N)N2O1
AC50 [2]: 0.501 µM [falling, full curve, poor fit]

Cc1ccccc1NC(=O)c1nn(-c2ccc(F)c(F)c2)ccc1=O
AC50 [1]: 0.0178 µM [rising, full curve, poor fit]

Cc1ccc(Cn2c(CN3CCC(C(=O)NCCc4ccccc4)CC3)cc3ccccc32)cc1
AC50 [1]: 35.5 µM [rising, single point]

CCNS(=O)(=O)c1ccc(NC(=O)Nc2cccc(C(F)(F)F)c2)cc1
AC50 [1]: 10 µM [rising, partial curve, poor fit]
AC50 [2]: 12.6 µM [rising, single point]

CCOCC(=O)Nc1cc(Cl)c(OC)cc1OC
AC50 [1]: 6.31 µM [rising, partial curve, poor fit]

COc1ccc(NC(=O)CNC(=O)c2c(C)nn(C)c2Cl)cc1
AC50 [1]: 3.16 µM [rising, single point]

Cc1ccc(C(=O)Nc2ccccc2C(=O)N2CCOCC2)cc1[N+](=O)[O-]
AC50 [2]: 4.47 µM [rising, single point]

Cc1nn(-c2ccc(N3CCCC3)nn2)c(C)c1CCC(=O)Nc1ccc(F)c(Cl)c1
AC50 [1]: 0.891 µM [falling, partial curve, poor fit]
AC50 [2]: 0.794 µM [falling, full curve]
